Measured values reported in US20250223332A1 (BOARD OF TRUSTEES OF THE UNIVERSITY OF ILLINOIS, published 2025).
These are yes or no findings as the source states them, for the method shown. Some entries that bind do so weakly or less than the wild type.

Sequences of proteins named here, by UniProt entry; tags and fusion partners are left off. Residues count along the entry.
UniProt Q9NR61, residues 27-524: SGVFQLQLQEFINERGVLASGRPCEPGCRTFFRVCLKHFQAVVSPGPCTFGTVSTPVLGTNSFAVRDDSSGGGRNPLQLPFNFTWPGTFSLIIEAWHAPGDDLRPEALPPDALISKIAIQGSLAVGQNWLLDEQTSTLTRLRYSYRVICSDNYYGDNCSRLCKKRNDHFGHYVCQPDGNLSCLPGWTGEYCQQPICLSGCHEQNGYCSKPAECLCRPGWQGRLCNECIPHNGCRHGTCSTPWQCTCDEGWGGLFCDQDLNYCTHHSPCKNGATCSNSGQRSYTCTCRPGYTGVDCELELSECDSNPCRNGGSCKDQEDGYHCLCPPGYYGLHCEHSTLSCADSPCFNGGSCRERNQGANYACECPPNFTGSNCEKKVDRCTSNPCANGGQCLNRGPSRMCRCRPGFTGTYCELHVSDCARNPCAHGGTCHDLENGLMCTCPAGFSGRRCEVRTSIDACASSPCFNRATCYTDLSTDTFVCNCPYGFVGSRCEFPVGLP

Target: T1, hDLL4-Fc (Sino Biologics) (human, UniProt Q9NR61 27-524, limits assumed)
T1 construct: Bought from Sino Biologics; also called Recombinant Fc-tagged hDLL4; recombinant hDLL4; not shown: Fc tag of the bought protein
Assay: SPR (Biacore T200), hDLL4-Fc on the chip, decoy as analyte

binding: binds
B1: N410-14Fc (human Notch4 EGF-like repeats 10-14 fused to human IgG Fc) (Fc fusion)
chain: LEDMCLSQPCHGDAQCSTNPLTGSTLCLCQPGYSGPTCHQDLDECLMAQQGPSPCEHGGSCLNTPGSFNCLCPPGYTGSRCEADHNECLSQPCHPGSTCLDLLATFHCLCPPGLEGQLCEVETNECASAPCLNHADCHDLLNGFQCICLPGFSGTRCEEDIDECRSSPCANGGQCQDQPGAFHCKCLPGFEGPRCQ
notes: Produced in HEK293 cells; also called Notch4 peptibody; Notch4 decoy; not shown: human IgG Fc
